PubChem BioAssay AID504793 | Drosophila RNAi Screening Center | 2011
Purpose: 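Whole-genome screen for parts of the DNA damage checkpoint at G2/M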 (primary screen). System: Drosophila S2R+ cells. Reagent: long dsRNA against Drosophila genes, about 0.25 µg dsRNA per well. Time to read-out: 4 days of dsRNA, then 4 hours of drug before read-out. Challenge: doxorubicin 0.5 µM for 4 hours to cause double-strand breaks, in cells also given a low, harmless dose of dsRNA against nbs to sensitise the assay. Detection: 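Per-well count of mitotic cells stained for phospho-histone H3 after doxorubicin exposure, used as mitotic index; counts are raw and not normalised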. Direction: mitotic cells: higher = more cells in mitosis, weaker G2 arrest. Hit rule: 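Genes are called active only when high mitotic counts were reproduced with independent dsRNAs and mitosis was checked for delay without damage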. Meaning of the calls: active = confirmed in follow-up tests; inactive = not confirmed.
In all, the deposit lists about 23,000 reagents; below is an unselected part of those that have a named target and a result. Of all reagents, 62 (0.27%) are marked active. 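Calls come from follow-up tests whose scores are not deposited, so confirmed genes may have low counts here; counts are not normalised per plate.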 The raw values are shown without normalisation. The numbers tell different reagents against one gene apart.

| Target gene | dsRNA no. | mitotic cells, replicate 1 | Call |
| --- | --- | --- | --- |
| mthl7 (methuselah-like 7) | 1 | 3 | inactive |
| CG5742 | 1 | 5 | inactive |
| CG5742 | 2 | 6 | inactive |
| Tsp96F (Tetraspanin 96F) | 1 | 8 | inactive |
| CG11670 | 1 | 1 | inactive |
| Try29F (Trypsin 29F) | 1 | 2 | inactive |
| Try29F (Trypsin 29F) | 2 | 8 | inactive |
| Mekk1 | 1 | 8 | inactive |
| Mekk1 | 2 | 7 | inactive |
| CG12531 | 1 | 3 | inactive |
| CG12531 | 2 | 9 | inactive |
| Mkp3 (Mitogen-activated protein kinase phosphatase 3) | 1 | 4 | inactive |
| Mkp3 (Mitogen-activated protein kinase phosphatase 3) | 2 | 6 | inactive |
| Tdc2 (Tyrosine decarboxylase 2) | 1 | 6 | inactive |
| Tdc2 (Tyrosine decarboxylase 2) | 2 | 5 | inactive |
| CG10062 | 1 | 4 | inactive |
| CG10062 | 2 | 7 | inactive |
| CG10062 | 3 | 10 | inactive |
| CG8490 | 1 | 5 | inactive |
| CG8490 | 2 | 7 | inactive |
| CG13404 | 1 | 14 | inactive |
| Con (Connectin) | 1 | 5 | inactive |
| HtrA2 (HTRA2-related serine protease) | 1 | 8 | inactive |
| HtrA2 (HTRA2-related serine protease) | 2 | 4 | inactive |
| Obp47a (Odorant-binding protein 47a) | 1 | 4 | inactive |
| Obp47a (Odorant-binding protein 47a) | 2 | 5 | inactive |
| Hel25E (Helicase at 25E) | 1 | 5 | inactive |
| Hel25E (Helicase at 25E) | 2 | 4 | inactive |
| REPTOR-BP (REPTOR-binding partner) | 1 | 9 | inactive |
| Spc105R (Spc105-related) | 1 | 9 | inactive |
| CG32487 | 1 | 6 | inactive |
| CG32487 | 2 | 2 | inactive |
| ara (araucan) | 1 | 8 | inactive |
| ara (araucan) | 2 | 6 | inactive |
| Eglp4 (Entomoglyceroporin 4) | 1 | 3 | inactive |
| Eglp4 (Entomoglyceroporin 4) | 2 | 9 | inactive |
| CG13403 | 1 | 9 | inactive |
| CG13403 | 2 | 7 | inactive |
| Mur89F (Mucin related 89F) | 1 | 6 | inactive |
| Mur89F (Mucin related 89F) | 2 | 5 | inactive |
| GstS1 (Glutathione S transferase S1) | 1 | 7 | inactive |
| cue (cueball) | 1 | 5 | inactive |
| trc (tricornered) | 1 | 3 | inactive |
| trc (tricornered) | 2 | 6 | inactive |
| HDAC6 (Histone deacetylase 6) | 1 | 6 | inactive |
| HDAC6 (Histone deacetylase 6) | 2 | 9 | inactive |
| CG18823 | 1 | 4 | inactive |
| Nacalpha (Nascent polypeptide associated complex protein alpha subunit) | 1 | 2 | inactive |
| Nacalpha (Nascent polypeptide associated complex protein alpha subunit) | 2 | 8 | inactive |
| Tehao | 1 | 5 | inactive |
| Ppat-Dpck | 1 | 2 | inactive |
| CG8298 | 1 | 3 | inactive |
| CG1785 | 1 | 7 | inactive |
| CG1785 | 2 | 12 | inactive |
| hoe1 (hoepel1) | 1 | 7 | inactive |
| hoe1 (hoepel1) | 2 | 8 | inactive |
| hoe1 (hoepel1) | 3 | 8 | inactive |
| sn (singed) | 1 | 13 | inactive |
| sn (singed) | 2 | 2 | inactive |
| Orai | 1 | 4 | inactive |
| CG42254 (retired record) | 1 | 4 | inactive |
| mRpL51 (mitochondrial ribosomal protein L51) | 1 | 4 | inactive |
| mRpL51 (mitochondrial ribosomal protein L51) | 2 | 7 | inactive |
| Ir11a (Ionotropic receptor 11a) | 1 | 12 | inactive |
| CG12824 | 1 | 5 | inactive |
| l(2)k09913 (lethal (2) k09913) | 1 | 7 | inactive |
| BHD (Birt-Hogg-Dube) | 1 | 9 | inactive |
| BHD (Birt-Hogg-Dube) | 2 | 9 | inactive |
| BHD (Birt-Hogg-Dube) | 3 | 10 | inactive |
| eIF4E6 (eukaryotic translation initiation factor 4E6) | 1 | 7 | inactive |
| eIF4E6 (eukaryotic translation initiation factor 4E6) | 2 | 2 | inactive |
| Sr-CI (Scavenger receptor class C, type I) | 1 | 11 | inactive |
| Sr-CI (Scavenger receptor class C, type I) | 2 | 7 | inactive |
| Smurf (SMAD specific E3 ubiquitin protein ligase) | 1 | 2 | inactive |
| Smurf (SMAD specific E3 ubiquitin protein ligase) | 2 | – | inactive |

Taken from above.
For “Call”, sn (singed) #1 is entered as inactive
Value of CG10062 #1 under “mitotic cells, replicate 1”: 4
Mekk1 #1, mitotic cells, replicate 1: 8
Value of Hel25E (Helicase at 25E) #2 in “mitotic cells, replicate 1”: 4
mRpL51 (mitochondrial ribosomal protein L51) #2, mitotic cells, replicate 1 → 7
